From paper PMC7819943, “Rice protein-binding microarrays: a tool to detect cis-acting elements near promoter regions in rice”
The list shows a part of the results.

Each sequence was assayed against T1, OsSMF1 (Oryza sativa, UniProt Q6ZLB0 1-436) (assay: protein-binding microarray (RPBM); PBS, 2% BSA, 51.3 ng/ul salmon testes DNA, 50 uM zinc acetate, 200 nM TF, 25 C, 1 h; high values mean tight binding). Details: protein: recombinant; tags: N-terminal polyhistidine and DsRed monomer fusion (pET32a); chain copies: 2; label: CyDye5-dUTP incorporated in the synthesized complementary strand; 3' TTTTT single-stranded linker to array surface; dsDNA, one strand shown.
T1 sequence: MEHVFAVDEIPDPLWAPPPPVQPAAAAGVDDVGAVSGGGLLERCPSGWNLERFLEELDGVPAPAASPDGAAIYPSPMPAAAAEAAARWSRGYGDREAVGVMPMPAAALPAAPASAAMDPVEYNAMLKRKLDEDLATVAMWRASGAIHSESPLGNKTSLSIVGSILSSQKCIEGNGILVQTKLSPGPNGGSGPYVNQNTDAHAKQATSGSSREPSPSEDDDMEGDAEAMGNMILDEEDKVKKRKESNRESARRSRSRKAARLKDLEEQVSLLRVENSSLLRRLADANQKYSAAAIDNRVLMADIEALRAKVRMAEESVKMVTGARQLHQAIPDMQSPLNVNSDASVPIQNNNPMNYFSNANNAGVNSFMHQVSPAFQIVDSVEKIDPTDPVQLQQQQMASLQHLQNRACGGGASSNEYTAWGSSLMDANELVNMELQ
Method in brief: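 Using Ni–NTA, transcription factors fused N-terminally to polyhistidine and DsRed were purified after expression in E. coli BL21-CodonPlus. These were incubated at 200 nM with a blocked, double-stranded custom Agilent array for 1 h at 25 °C in a buffer containing 50 µM zinc acetate, and the array was washed. The binding signal is per-feature fluorescence intensity (arbitrary units) on an Axon 4000B scanner.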

Point of comparison: “GGGAAAGGGTCTCTGCCTCAGTGTCTCACAGACAGGTGGGCGGAGTCACCTAGTGCAG”, binding signal 3420 fluorescence intensity (a.u.). Against it:
- CTCAGAGCCCCGGGAAAATCTGGGCCATCCACGTGTCCTCCGGAGTCACCTAGTGCAG — higher, 11400 fluorescence intensity (a.u.)
- ACGAGAACCTATGCACTAGACACTATCAAGTTTTGCATTGCGGAGTCACCTAGTGCAG — higher, 3570 fluorescence intensity (a.u.)
- GCCACCCATGTATCGTCTCTTCTTTATGTTTGTTTTGTTGCGGAGTCACCTAGTGCAG — lower, 3160 fluorescence intensity (a.u.)
- GGCGGAGAAGCACGTGGAATATATTGGTGGGCGCGGATTTCGGAGTCACCTAGTGCAG — higher, 4070 fluorescence intensity (a.u.)
- TCTTACAGCGCGCGTGTTCGTTCGAACGATTCTCTTCTTCCGGAGTCACCTAGTGCAG — higher, 51900 fluorescence intensity (a.u.)
- TTCGTCTCGCAATTTACACGCAAACTGTGTAGTTAGTTTTCGGAGTCACCTAGTGCAG — lower, 3150 fluorescence intensity (a.u.)
- CTAACTTTATTGTGCATATGTCAGTTCATAGGGTGAGTGTCGGAGTCACCTAGTGCAG — higher, 28600 fluorescence intensity (a.u.)
- CGTGGCGAGCATCGAGCGGCGGCGCGCGCCGGGCGGGGCGCGGAGTCACCTAGTGCAG — lower, 3180 fluorescence intensity (a.u.)
- ATCTGATCATCCTGGTCTGACGAGCATATCCATCTATCCTCGGAGTCACCTAGTGCAG — higher, 3600 fluorescence intensity (a.u.)
- TCCTCCACCATCCACATATGTTCGTCAACAAGATAAGCATCGGAGTCACCTAGTGCAG — higher, 3480 fluorescence intensity (a.u.)
- ATCCATCGTCTTTACACGTACTTACCTTGCTAACCGCACTCGGAGTCACCTAGTGCAG — higher, 6330 fluorescence intensity (a.u.)
- CGTGTGCGTGTTGACTTCCACGTCAGCCTTGCCCTTCATCCGGAGTCACCTAGTGCAG — higher, 24300 fluorescence intensity (a.u.)
- GGAGATGTGGGGTGCTCATTTTGAGACAATTATGCTGGTCCGGAGTCACCTAGTGCAG — higher, 3440 fluorescence intensity (a.u.)
- TGATGTACACAGCCAGATTTTACACGGTGGCCGCCGCGCTCGGAGTCACCTAGTGCAG — lower, 3360 fluorescence intensity (a.u.)
- ATTGTCAACTCCTCTTGTTGATGACCATGTCAGAATTTCCCGGAGTCACCTAGTGCAG — higher, 5340 fluorescence intensity (a.u.)
- CCTAAATTCGGCCTAATTCCAAGTAAAGTGGGCCGTTTCGCGGAGTCACCTAGTGCAG — higher, 14300 fluorescence intensity (a.u.)
- GTTGAATTCTGTGCGTGTAAGCAGACCTGCATTGCCGTCGCGGAGTCACCTAGTGCAG — lower, 3170 fluorescence intensity (a.u.)
- TGTTTTCTTGGCGTGTTGCAGAGGACAAGTTCGCGTGGCTCGGAGTCACCTAGTGCAG — higher, 3480 fluorescence intensity (a.u.)
- AATCGGCTGCCCTGCCCGCGTAAGCAAATGAAGATCATTTCGGAGTCACCTAGTGCAG — higher, 3500 fluorescence intensity (a.u.)
- TTGCTTTTGCGGATGACTTGGACAAGTTGGACGCCATACTCGGAGTCACCTAGTGCAG — higher, 5370 fluorescence intensity (a.u.)
- CGGGGAGGGGAGCGGAGTACGGAGCTAACCTGCGACTCTGCGGAGTCACCTAGTGCAG — lower, 3310 fluorescence intensity (a.u.)
- CCCGCCGCGGCTTCCTCTACGGGTTCGTCTTCAACCGCCACGGAGTCACCTAGTGCAG — higher, 3680 fluorescence intensity (a.u.)
